Source: US20190389961A1
No constants are given. Whether binding was seen depends on the method and setting. Some entries that bind do so weakly or less than the wild type.

Biological target: T1, human CD39 mutant 8 (human) (UniProt P49961)
T1 sequence: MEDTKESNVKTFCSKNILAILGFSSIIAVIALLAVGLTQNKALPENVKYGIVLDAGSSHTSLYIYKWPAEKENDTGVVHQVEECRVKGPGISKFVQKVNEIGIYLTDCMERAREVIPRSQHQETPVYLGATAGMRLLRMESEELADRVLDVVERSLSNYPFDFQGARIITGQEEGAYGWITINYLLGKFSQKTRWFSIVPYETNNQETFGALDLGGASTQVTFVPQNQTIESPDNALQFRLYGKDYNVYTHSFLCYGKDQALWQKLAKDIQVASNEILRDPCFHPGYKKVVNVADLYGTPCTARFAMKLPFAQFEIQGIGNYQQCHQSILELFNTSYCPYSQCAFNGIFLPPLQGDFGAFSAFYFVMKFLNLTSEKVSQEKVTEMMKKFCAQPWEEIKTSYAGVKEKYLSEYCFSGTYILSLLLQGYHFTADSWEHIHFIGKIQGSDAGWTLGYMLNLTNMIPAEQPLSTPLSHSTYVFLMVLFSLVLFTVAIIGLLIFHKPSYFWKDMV
Assay: flow cytometry, Hek-293T cells expressing the mutant

binding: binds
B1: antibody I-399 (antibody, V domains shown)
VH: PVQLQQPGAEVVMPGASVKLSCKASGYTFTSFWMNWMRQRPGQGLEWIGEIDPSDFYTNSNQRFKGKATLTVDKSSSTAYMQLSSLTSEDSAVYFCARGDFGWYFDVWGTGTSVTVSS
VL: EIVLTQSPTTMTSSPGEKITFTCSASSSINSNYLHWYQQKPGFSPKLLIYRTSNLASGVPTRFSGSGSGTSYSLTIGTMEAEDVATYYCQQGSSLPRTFGGGTKLEIK
